Results published in the M2OR odorant receptor database.
This is a selection; strong and weak results do not stand in their true shares. The calls were merged from several studies; some rest on single wells. This is one part of the list.

How the values were obtained:
Settings in all cases: stereoisomer not certain
OR8U9 = test system: T1, OR8U9
T1 sequence (whole entry): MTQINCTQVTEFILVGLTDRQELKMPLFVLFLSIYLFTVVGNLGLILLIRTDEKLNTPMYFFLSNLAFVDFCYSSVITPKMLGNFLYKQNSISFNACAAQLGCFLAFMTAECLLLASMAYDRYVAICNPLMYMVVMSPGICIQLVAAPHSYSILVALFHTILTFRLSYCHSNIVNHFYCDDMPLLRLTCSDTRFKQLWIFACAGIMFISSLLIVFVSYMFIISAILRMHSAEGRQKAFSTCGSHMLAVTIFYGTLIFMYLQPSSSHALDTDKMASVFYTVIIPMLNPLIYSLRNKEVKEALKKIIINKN
Summary of the method: (§1)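 Assay methods differ from source to source, frequently being transient luciferase assays in mammalian cell lines. For each receptor–molecule pair, the label responsive (active) applies when the original authors judged the measured signal statistically different from baseline, and non-responsive (inactive) applies otherwise.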

OR9A2 = test system: T2, OR9A2
T2 sequence (whole entry): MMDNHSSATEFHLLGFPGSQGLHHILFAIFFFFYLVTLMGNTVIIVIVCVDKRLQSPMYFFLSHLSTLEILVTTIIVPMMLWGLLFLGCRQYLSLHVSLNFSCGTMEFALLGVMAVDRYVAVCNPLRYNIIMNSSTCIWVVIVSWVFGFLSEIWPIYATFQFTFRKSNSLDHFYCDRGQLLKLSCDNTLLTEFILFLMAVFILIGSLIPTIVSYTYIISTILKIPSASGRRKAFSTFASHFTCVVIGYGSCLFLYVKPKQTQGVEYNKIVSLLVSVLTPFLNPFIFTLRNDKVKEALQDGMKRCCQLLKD
Summary of the method: as §1

OR9A4 (Homo sapiens) = molecular target: T3, OR9A4 (Homo sapiens) (UniProt Q8NGU2)
T3 sequence (whole entry): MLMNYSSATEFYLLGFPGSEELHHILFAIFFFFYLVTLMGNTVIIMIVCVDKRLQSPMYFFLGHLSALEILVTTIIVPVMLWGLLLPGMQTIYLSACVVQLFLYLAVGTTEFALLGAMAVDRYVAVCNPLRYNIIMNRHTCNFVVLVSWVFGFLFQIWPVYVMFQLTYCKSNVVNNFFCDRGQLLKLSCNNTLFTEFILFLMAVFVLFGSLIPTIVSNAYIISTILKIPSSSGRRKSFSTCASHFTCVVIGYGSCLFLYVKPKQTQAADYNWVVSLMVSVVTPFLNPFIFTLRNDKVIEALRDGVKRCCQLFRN
Summary of the method: as §1

OR9G4 = test system: T4, OR9G4
T4 sequence (whole entry): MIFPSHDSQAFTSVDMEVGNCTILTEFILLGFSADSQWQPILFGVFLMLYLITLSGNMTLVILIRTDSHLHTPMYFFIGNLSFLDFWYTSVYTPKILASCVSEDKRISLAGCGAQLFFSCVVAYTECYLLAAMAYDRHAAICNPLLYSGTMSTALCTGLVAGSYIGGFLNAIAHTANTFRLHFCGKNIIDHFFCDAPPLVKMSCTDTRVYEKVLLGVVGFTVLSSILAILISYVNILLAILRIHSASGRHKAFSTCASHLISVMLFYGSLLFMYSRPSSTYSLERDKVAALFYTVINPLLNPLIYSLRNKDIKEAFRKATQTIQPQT
Summary of the method: as §1

OR9G9 [1] = test system: T5, OR9G9
T5 sequence (whole entry): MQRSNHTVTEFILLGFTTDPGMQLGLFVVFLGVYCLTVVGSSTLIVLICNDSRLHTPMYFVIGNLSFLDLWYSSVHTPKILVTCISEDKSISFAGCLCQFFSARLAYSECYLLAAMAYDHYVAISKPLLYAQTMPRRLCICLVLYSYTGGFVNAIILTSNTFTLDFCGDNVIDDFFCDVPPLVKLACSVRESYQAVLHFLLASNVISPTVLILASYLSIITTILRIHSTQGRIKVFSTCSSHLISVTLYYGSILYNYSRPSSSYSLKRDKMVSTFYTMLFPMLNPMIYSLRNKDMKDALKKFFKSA
Summary of the method: as §1

OR9G9 [2] = test system: T6, OR9G9; remark: listed apart in the source
T6 sequence (whole entry): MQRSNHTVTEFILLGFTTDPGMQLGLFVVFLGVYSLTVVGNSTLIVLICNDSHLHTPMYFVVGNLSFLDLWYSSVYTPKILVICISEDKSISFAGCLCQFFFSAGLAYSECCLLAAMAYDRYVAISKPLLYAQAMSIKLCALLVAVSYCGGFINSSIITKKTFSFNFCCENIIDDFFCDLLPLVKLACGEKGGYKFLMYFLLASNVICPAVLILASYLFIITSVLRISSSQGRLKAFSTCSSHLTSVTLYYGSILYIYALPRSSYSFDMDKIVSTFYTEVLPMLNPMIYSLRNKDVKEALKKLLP
Summary of the method: as §1

OR9I1 (Homo sapiens) = molecular target: T7, OR9I1 (Homo sapiens) (UniProt Q8NGQ6)
T7 sequence (whole entry): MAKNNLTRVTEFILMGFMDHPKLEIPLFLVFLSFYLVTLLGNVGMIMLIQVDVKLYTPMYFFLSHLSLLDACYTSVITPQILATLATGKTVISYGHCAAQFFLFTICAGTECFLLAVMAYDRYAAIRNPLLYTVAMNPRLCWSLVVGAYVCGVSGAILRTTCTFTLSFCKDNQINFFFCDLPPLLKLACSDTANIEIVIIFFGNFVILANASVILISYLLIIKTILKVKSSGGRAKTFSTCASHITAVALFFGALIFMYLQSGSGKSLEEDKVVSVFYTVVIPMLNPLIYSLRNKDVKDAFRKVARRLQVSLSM
Summary of the method: as §1

OR9K2 (Homo sapiens) = molecular target: T8, OR9K2 (Homo sapiens) (UniProt Q8NGE7)
T8 sequence (whole entry): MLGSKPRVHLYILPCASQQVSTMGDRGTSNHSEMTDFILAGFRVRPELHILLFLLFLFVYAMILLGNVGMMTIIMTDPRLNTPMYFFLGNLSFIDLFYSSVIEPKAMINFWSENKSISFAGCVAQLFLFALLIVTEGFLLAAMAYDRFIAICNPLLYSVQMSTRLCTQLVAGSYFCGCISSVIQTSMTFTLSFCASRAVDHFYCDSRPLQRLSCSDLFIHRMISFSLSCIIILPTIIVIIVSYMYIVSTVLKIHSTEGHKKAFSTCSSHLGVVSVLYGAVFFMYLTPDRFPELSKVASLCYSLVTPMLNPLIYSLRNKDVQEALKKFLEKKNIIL
Summary of the method: as §1

OR9Q1 = test system: T9, OR9Q1
T9 sequence (whole entry): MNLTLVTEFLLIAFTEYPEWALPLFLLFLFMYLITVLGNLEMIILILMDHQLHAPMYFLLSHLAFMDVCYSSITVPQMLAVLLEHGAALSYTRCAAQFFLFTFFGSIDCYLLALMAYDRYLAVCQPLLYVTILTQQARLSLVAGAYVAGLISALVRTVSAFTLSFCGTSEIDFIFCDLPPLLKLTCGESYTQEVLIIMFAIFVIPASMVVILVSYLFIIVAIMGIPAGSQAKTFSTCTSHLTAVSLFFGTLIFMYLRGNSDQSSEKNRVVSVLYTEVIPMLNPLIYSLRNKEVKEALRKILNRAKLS
Summary of the method: as §1

OR9Q2 (Homo sapiens) = molecular target: T10, OR9Q2 (Homo sapiens) (UniProt Q8NGE9)
T10 sequence (whole entry): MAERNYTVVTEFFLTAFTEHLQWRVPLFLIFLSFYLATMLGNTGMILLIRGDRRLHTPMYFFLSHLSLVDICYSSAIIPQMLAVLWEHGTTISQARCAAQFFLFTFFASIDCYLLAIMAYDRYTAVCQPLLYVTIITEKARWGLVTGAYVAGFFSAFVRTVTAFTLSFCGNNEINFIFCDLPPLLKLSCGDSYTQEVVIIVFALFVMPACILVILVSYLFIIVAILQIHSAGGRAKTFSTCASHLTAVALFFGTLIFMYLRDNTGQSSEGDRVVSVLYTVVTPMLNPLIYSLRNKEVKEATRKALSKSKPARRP
Summary of the method: as §1

Measured: odorant receptor agonist call

CCCCCOC(C)=O
active: OR9A4 (Homo sapiens) | OR9G4 | OR9G9 [2]
inactive: all other assays above

CCCCCCCCOC(C)=O
inactive: all assays above

CC1=NC(C)SC1C (stereo not drawn)
not listed: OR9Q1
inactive: all other assays above

CC12CCC(C1)C(C)(C)C2=O (stereo not drawn)
inactive: all assays above

C=C(C)C1CCC2=CC(=O)CC(C)C2(C)C1 (stereo not drawn)
active: OR9Q1

CCCCCCCC=O
inactive: all assays above

C=CCc1ccc(OC)c(OC)c1
inactive: all assays above

CC(=O)c1ccccc1
not listed: OR9Q1
inactive: all other assays above

CC(=O)OC(C)(C)C1CC=C(C)CC1 (stereo not drawn)
inactive: all assays above

O=C1CCCCCCCCCCCC(=O)OCCO1
inactive: all assays above

CC(C)C(=O)O
active: OR9Q1
inactive: all other assays above

O=C1CCCCC1
active: OR9G4 | OR9G9 [2]
not listed: OR9Q1
inactive: all other assays above

CC(C)C=O
active: OR9A4 (Homo sapiens)
inactive: all other assays above

CCCCCCCCCCC=O
inactive: all assays above
